From the supplement of paper PMC4604168 (melanoma cell lines) come the findings set out here.

Test systems include WM115; WM1716; WM1745; WM3526; WM3619; WM451Lu.
Holding throughout (test): cleaved PARP positive nuclei fraction relative to DMSO control; melanoma cells; higher = more apoptosis
Settings in all cases: library dose: low library concentration; 72 h

Structures are written as SMILES. This is one part of the list. Repeats are few or missing, and single values can be far off.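 Cells were imaged in 1,536-well plates, and nuclei stained with an antibody against cleaved PARP were counted against all DNA-stained nuclei to give the apoptosis fraction. Screening doses were chosen to leave most cells alive, and resting and induced cleaved-PARP levels differ strongly between cell lines.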

In the case of `C=CCn1c(=O)c2cnc(Nc3ccc(N4CCN(C)CC4)cc3)nc2n1-c1cccc(C(C)(C)O)n1` + CO[C@@H]1[C@H](N(C)C(=O)c2ccccc2)C[C@H]2O[C@]1(C)n1c3ccccc3c3c4c(c5c6ccccc6n2c5c31)C(=O)NC4 [Midostaurin] (first compound 0.02 µM, partner dose 0.08 µM), the “cleaved PARP positive nuclei fraction” value came out at 532% in the assay with WM115; 284% in the assay with WM1716; 162% with WM1745; 144% in the assay with WM3526; 122% in the assay with WM3619; 57.1% in the assay with WM451Lu.

As to `Clc1ccc(Nc2nnc(Cc3ccncc3)c3ccccc23)cc1` [vatalanib] + CN(NC(=O)CC(=O)NN(C)C(=S)c1ccccc1)C(=S)c1ccccc1 [STA4783] (first compound 2 µM, partner dose 0.006 µM), the “cleaved PARP positive nuclei fraction” value in the assay with WM115 came to 97.3%; in the assay on WM1716, 216%; in the assay with WM1745 it was 97.8%; in the assay on WM3526 it was 113%; in the assay on WM3619 it was 110%; in the assay with WM451Lu, 57.3%.

Take `Cc1ccc(NC(=O)c2cccc(N(C)C)c2)cc1NC(=O)c1ccc(O)cc1` + COc1ccc2c(c1)CCC1C2CCC2(C)C(NCCCCCCN3C(=O)C=CC3=O)CCC12 [U73122] (first compound 2 µM, partner dose 0.4 µM): the “cleaved PARP positive nuclei fraction” value with WM115 came to 228%; in the assay on WM1716 it was 73.5%; in the assay with WM1745, 110%; in the assay with WM3526, 98.5%; in the assay on WM3619 it was 90.4%; in the assay with WM451Lu, 140%.

Consider `OCc1c[nH]c2ccccc12` [Indole-3-carbinol] + COc1ccc2c(c1)CCC1C2CCC2(C)C(NCCCCCCN3C(=O)C=CC3=O)CCC12 [U73122] (first compound 0.8 µM, partner dose 0.4 µM), for which the “cleaved PARP positive nuclei fraction” value with WM115 is 120%; in the assay on WM1716, 101%; in the assay on WM1745 it was 81.9%; with WM3526, 71.6%; in the assay on WM3619, 86.3%; in the assay on WM451Lu it was 36.7%.

For `OCCn1cc(-c2cnc3nnn(Cc4ccc5ncccc5c4)c3n2)cn1` + COC(=O)c1sccc1S(=O)(=O)Nc1ccc(Nc2ccccc2)cc1OC [GSK0660] (first compound 1 µM, partner dose 1 µM), the “cleaved PARP positive nuclei fraction” value stood at 115% in the assay on WM115; 45.6% with WM1716; 99% in the assay on WM1745; 70.5% with WM3526; 78.6% with WM3619; 60.9% in the assay with WM451Lu.

`C[C@@H]1CCN(C(=O)CC#N)C[C@@H]1N(C)c1ncnc2[nH]ccc12` + COC(=O)c1sccc1S(=O)(=O)Nc1ccc(Nc2ccccc2)cc1OC [GSK0660] (first compound 1 µM, partner dose 1 µM): the “cleaved PARP positive nuclei fraction” value came out at 31.5% in the assay with WM115; 101% in the assay on WM1716; 319% with WM1745; 72.7% in the assay with WM3526; 78.9% in the assay on WM3619; 161% with WM451Lu.

In the case of `Clc1ccc(Nc2nnc(Cc3ccncc3)c3ccccc23)cc1` [vatalanib] + Nc1cccc2c1CN(C1CCC(=O)NC1=O)C2=O [lenalidomide] (first compound 2 µM, partner dose 1 µM), the “cleaved PARP positive nuclei fraction” value is 118% with WM115; 153% in the assay with WM1716; 82.5% with WM1745; 108% in the assay on WM3526; 85.2% in the assay with WM3619; 108% in the assay on WM451Lu.

As for `OCc1c[nH]c2ccccc12` [Indole-3-carbinol] + COCC[n+]1c2c(n(Cc3cnccn3)c1C)C(=O)c1ccccc1C2=O [YM155] (first compound 0.8 µM, partner dose 0.0004 µM), the “cleaved PARP positive nuclei fraction” value in the assay with WM115 stood at 123%; with WM1716, 114%; in the assay on WM1745, 94.7%; in the assay with WM3526, 47.7%; with WM3619 it was 92.2%; with WM451Lu it was 80.4%.

Consider `Nc1cccc2c1CN(C1CCC(=O)NC1=O)C2=O` (centres undefined) [lenalidomide] + COc1ccc(-c2ccc3c(N4CCOCC4)nc(N4C[C@@H](C)O[C@@H](C)C4)nc3n2)cc1CO [KU0063794] (first compound 1 µM, partner dose 0.02 µM), for which the “cleaved PARP positive nuclei fraction” value with WM115 was found to be 162%; in the assay on WM1716 it was 52.9%; in the assay with WM1745, 199%; in the assay with WM3526, 78%; in the assay with WM3619, 113%; with WM451Lu, 59.1%.

Regarding `Cc1ccc(NC(=O)c2cccc(N(C)C)c2)cc1NC(=O)c1ccc(O)cc1` + CCCCCCCCCCCC1=C(O)C(=O)C=C(O)C1=O [Embelin] (first compound 2 µM, partner dose 1.2 µM), the “cleaved PARP positive nuclei fraction” value in the assay with WM115 was determined as 53%; in the assay on WM1716 it was 65%; with WM1745, 114%; in the assay on WM3526, 46.1%; in the assay on WM3619 it was 79.7%; in the assay on WM451Lu it was 119%.

On to `Cn1c(Nc2ccc(C(F)(F)F)cc2)nc2cc(Oc3ccnc(-c4ncc(C(F)(F)F)[nH]4)c3)ccc21` + Oc1cc(-c2nc(-c3ccccc3)[nH]c2-c2ccncc2)ccc1Cl [L779450] (first compound 0.08 µM, partner dose 0.2 µM), for which the “cleaved PARP positive nuclei fraction” value worked out at 278% in the assay on WM115; 135% with WM1716; 198% with WM1745; 162% in the assay on WM3526; 134% in the assay on WM3619; 242% in the assay on WM451Lu.

For the compound `COCC[n+]1c2c(n(Cc3cnccn3)c1C)C(=O)c1ccccc1C2=O` + COc1ccc(COc2ccc(Cc3cnc(N)nc3N)cc2OC)cc1 [GW2580] (first compound 0.0004 µM, partner dose 1 µM), the “cleaved PARP positive nuclei fraction” value in the assay with WM115 is 178%; in the assay on WM1716 it was 59.7%; in the assay on WM1745, 99.2%; in the assay with WM3526 it was 68.6%; in the assay on WM3619, 55.7%; in the assay on WM451Lu, 247%.

In the case of `Cn1c(Nc2ccc(C(F)(F)F)cc2)nc2cc(Oc3ccnc(-c4ncc(C(F)(F)F)[nH]4)c3)ccc21` + CC1(C)NC(=O)N(c2ccc([N+](=O)[O-])c(C(F)(F)F)c2)C1=O [nilutamide] (first compound 0.08 µM, partner dose 1 µM), the “cleaved PARP positive nuclei fraction” value came to 321% with WM115; 200% in the assay on WM1716; 168% with WM1745; 112% with WM3526; 137% in the assay with WM3619; 237% with WM451Lu.

In the case of `CO[C@@H]1[C@H](N(C)C(=O)c2ccccc2)C[C@H]2O[C@]1(C)n1c3ccccc3c3c4c(c5c6ccccc6n2c5c31)C(=O)NC4` [Midostaurin] + O=S(=O)(c1ccccc1)N(CC(F)(F)F)c1ccc(C(O)(C(F)(F)F)C(F)(F)F)cc1 [T0901317] (first compound 0.08 µM, partner dose 1.4 µM), the “cleaved PARP positive nuclei fraction” value came to 103% in the assay on WM115; 111% with WM1716; 130% with WM1745; 80.2% in the assay on WM3526; 107% with WM3619; 61.6% with WM451Lu.
